Assay results taken from patent publication US7589206B2, “Pyrrolopyridine derivatives” (Glaxo Group Limited, priority 2004, dated 2009).
Some entries share one result that the patent states for a list of compounds.

The chains behind the UniProt entries cited, without tags or fusion partners.
UniProt P34972, whole entry: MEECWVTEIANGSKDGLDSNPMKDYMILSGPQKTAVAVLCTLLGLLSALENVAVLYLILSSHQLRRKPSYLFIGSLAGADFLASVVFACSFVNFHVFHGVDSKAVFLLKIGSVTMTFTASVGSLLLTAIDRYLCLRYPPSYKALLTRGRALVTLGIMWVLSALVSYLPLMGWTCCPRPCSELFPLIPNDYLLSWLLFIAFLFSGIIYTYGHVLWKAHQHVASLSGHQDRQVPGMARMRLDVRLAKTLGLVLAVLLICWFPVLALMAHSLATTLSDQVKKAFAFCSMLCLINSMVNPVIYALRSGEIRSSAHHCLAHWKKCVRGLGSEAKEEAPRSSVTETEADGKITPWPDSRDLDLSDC

Molecular target: T1, human cannabinoid CB2 receptor (Homo sapiens, UniProt P34972)
T1 construct: expressed in transfected cells; host or cells: Saccharomyces cerevisiae strain MMY23 (Gpa1/Galphai3 chimeric G-protein alpha subunit)
Test: Cannabinoid CB2 receptor agonist activity in yeast cells expressing the receptor (FDGlu fluorescence)
Type: cell-based
Conditions: yeast assay; relative to HU210
Procedure: The cannabinoid CB2 receptor agonist activity of compounds of formula (I) was determined in accordance with the following experimental method.
Yeast (Saccharomyces cerevisiae) cells expressing the human cannabinoid CB2 receptor were generated by integration of an expression cassette into the ura3 chromosomal locus of yeast strain MMY23. This cassette consisted of DNA sequence encoding the human CB2 receptor flanked by the yeast GPD promoter to the 5′ end of CB2 and a yeast transcriptional terminator sequence to the 3′ end of CB2. MMY23 expresses a yeast/mammalian chimeric G-protein alpha subunit in which the C-terminal 5 amino acids of Gpa1 are replaced with the C-terminal 5 amino acids of human Gαi3 (as described in Brown et al. (2000), Yeast 16:11-22). Cells were grown at 30° C. in liquid Synthetic Complete (SC) yeast media (Guthrie and Fink (1991), Methods in Enzymology, Vol. 194) lacking uracil, tryptophan, adenine and leucine to late logarithmic phase (approximately 6 OD600/m).
Agonists were prepared as 10 mM solutions in DMSO. […] After incubation at 30° C. for 24 hours, fluorescence resulting from degradation of FDGlu to fluorescein due to exoglucanase, an endogenous yeast enzyme produced during agonist-stimulated cell growth, was determined using a fluorescence microtitre plate reader (Tecan Spectrofluor or LJL Analyst excitation wavelength: 485 nm; emission wavelength: 535 nm). Fluorescence was plotted against compound concentration and iteratively curve fitted using a four parameter fit to generate a concentration effect value. […]
where Max[compound X] and Min[compound X] are the fitted maximum and minimum respectively from the concentration effect curve for compound X, and Max[HU210] and Min[HU210] are the fitted maximum and minimum respectively from the concentration effect curve for (6aR,10aR)-3-(1,1′-Dimethylheptyl)-6a,7,10,10a-tetrahydro-1-hydroxy-6,6-dimethyl-6H-dibenzo[b,d]pyran-9-methanol (HU210; available from Tocris). Equieffective molar ratio (EMR) values were calculated from the equation EMR=EC50 [compound X]/EC50 [HU210] […]

Row | Structure (SMILES) | efficacy value at the cloned human cannabinoid CB2 receptor
1 | CN(c1cccc(Cl)c1)c1ncc(C(=O)NCC2CCC2)c2c1ccn2C.Cl [Example 67, 4-[(3-Chloro-phenyl)-methyl-amino]-1-methyl-1H-pyrrolo[3,2-c]pyridine-7-carboxylic acid cyclobutylmethyl amide hydrochloride] | > 50%
2 | COc1ccccc1Nc1ncc(C(=O)N2CCOCC2)c2c(C)c[nH]c12.Cl [Example 72, 1-[7-(2-Methoxy-phenylamino)-3-methyl-1H-pyrrolo[2,3-c]pyridin-4-yl]-1-morpholin-4-yl-methanone hydrochloride salt] | > 50%
3 | Cc1ccc(Nc2ncc(C(=O)N3CCOCC3)c3c2ccn3C)c(C)c1.Cl [Example 184, N-(2,4-Dimethylphenyl)-1-methyl-7-(4-morpholinylcarbonyl)-1H-pyrrolo[3,2-c]pyridin-4-amine hydrochloride] | > 50%
